This test concerns the target T1, SMC1 (UniProt Q14683).
T1 sequence: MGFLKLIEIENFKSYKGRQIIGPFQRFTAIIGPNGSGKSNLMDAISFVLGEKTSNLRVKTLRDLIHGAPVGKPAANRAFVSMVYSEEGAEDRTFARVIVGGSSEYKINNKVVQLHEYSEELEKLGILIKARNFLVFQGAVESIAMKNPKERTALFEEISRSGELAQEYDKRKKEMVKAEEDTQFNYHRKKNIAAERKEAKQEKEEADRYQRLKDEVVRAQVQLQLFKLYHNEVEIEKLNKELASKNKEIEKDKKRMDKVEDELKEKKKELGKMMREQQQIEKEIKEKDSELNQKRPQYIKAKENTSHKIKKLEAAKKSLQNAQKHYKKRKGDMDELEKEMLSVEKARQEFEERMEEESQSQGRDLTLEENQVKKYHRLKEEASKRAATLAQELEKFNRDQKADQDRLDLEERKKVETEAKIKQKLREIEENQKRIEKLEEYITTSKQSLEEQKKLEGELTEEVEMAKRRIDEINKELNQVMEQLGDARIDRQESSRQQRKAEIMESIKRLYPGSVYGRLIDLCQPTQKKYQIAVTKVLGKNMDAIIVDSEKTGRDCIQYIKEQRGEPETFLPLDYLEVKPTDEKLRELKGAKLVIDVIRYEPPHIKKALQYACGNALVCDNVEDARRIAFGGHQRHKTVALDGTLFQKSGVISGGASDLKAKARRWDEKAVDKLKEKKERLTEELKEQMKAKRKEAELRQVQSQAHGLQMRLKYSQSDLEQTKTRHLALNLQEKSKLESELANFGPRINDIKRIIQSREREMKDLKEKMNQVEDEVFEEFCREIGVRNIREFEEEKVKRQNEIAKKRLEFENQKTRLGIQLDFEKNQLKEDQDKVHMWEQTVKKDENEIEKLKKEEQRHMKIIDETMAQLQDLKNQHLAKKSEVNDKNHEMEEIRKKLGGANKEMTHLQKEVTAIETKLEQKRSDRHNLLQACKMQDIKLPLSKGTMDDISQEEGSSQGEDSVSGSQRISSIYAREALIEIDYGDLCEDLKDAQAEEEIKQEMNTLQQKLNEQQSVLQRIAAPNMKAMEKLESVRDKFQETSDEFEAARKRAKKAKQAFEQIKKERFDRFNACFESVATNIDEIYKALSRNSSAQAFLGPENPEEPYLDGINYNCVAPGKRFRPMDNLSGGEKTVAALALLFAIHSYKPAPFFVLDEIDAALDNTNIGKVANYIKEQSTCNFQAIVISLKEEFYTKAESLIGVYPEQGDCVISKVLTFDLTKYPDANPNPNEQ
The experiment in a line: mass photometry; in solution; the purified cohesin Trimer measured alone; peak at the mass expected of the three-subunit complex.

Results are given in words; binding and its absence hold for the method and conditions named. Some results given as binding are weak or reduced against the parent protein; the word gives no strength.

B1: SCC1 (protein, UniProt O60216 1-631)
chain: MFYAHFVLSKRGPLAKIWLAAHWDKKLTKAHVFECNLESSVESIISPKVKMALRTSGHLLLGVVRIYHRKAKYLLADCNEAFIKIKMAFRPGVVDLPEENREAAYNAITLPEEFHDFDQPLPDLDDIDVAQQFSLNQSRVEEITMREEVGNISILQENDFGDFGMDDREIMREGSAFEDDDMLVSTTTSNLLLESEQSTSNLNEKINHLEYEDQYKDDNFGEGNDGGILDDKLISNNDGGIFDDPPALSEAGVMLPEQPAHDDMDEDDNVSMGGPDSPDSVDPVEPMPTMTDQTTLVPNEEEAFALEPIDITVKETKAKRKRKLIVDSVKELDSKTIRAQLSDYSDIVTTLDLAPPTKKLMMWKETGGVEKLFSLPAQPLWNNRLLKLFTRCLTPLVPEDLRKRRKGGEADNLDEFLKEFENPEVPREDQQQQHQQRDVIDEPIIEEPSRLQESVMEASRTNIDESAMPPPPPQGVKRKAGQIDPEPVMPPQQVEQMEIPPVELPPEEPPNICQLIPELELLPEKEKEKEKEKEDDEEEEDEDASGGDQDQEERRWNKRTQQMLHGLQRALAKTGAESISLLELCRNTNRKQAAAKFYSFLVLKKQQAIELTQEEPYSDIIATPGPRFHII
As for B1, the binding result is “binds”.

For the origin of these results see paper PMC12358912.
